Data: patent publication EP0412762A2, “Peptide inhibitors of human papilloma virus protein binding to retinoblastoma gene proteins” (MERCK & CO. INC., priority 1989, dated 1991)
For some of these results: At least one peptide structure holds a part that was inferred or is arguable (an end, a ring closure or a residue). Some entries share one result that the patent states for a list of compounds. No end group written: not given here.

Key:
[1] = molecular target: T1, binding of the HPV-16 E7 protein to the RBG protein (Homo sapiens, UniProt P06400); experiment: Binding inhibition assay in vitro: immune precipitation of RBG protein from Hela lysate with radiolabelled HPV-16 E7 (Example 2)
T1 construct: Whole cell lysates of Hela cells were used as a source of human RBG protein; endogenous in cells; host or cells: HeLa whole cell lysate (RB); rabbit reticulocyte lysate, T7 promoter clone (E7)
T1 sequence (P06400 1-928): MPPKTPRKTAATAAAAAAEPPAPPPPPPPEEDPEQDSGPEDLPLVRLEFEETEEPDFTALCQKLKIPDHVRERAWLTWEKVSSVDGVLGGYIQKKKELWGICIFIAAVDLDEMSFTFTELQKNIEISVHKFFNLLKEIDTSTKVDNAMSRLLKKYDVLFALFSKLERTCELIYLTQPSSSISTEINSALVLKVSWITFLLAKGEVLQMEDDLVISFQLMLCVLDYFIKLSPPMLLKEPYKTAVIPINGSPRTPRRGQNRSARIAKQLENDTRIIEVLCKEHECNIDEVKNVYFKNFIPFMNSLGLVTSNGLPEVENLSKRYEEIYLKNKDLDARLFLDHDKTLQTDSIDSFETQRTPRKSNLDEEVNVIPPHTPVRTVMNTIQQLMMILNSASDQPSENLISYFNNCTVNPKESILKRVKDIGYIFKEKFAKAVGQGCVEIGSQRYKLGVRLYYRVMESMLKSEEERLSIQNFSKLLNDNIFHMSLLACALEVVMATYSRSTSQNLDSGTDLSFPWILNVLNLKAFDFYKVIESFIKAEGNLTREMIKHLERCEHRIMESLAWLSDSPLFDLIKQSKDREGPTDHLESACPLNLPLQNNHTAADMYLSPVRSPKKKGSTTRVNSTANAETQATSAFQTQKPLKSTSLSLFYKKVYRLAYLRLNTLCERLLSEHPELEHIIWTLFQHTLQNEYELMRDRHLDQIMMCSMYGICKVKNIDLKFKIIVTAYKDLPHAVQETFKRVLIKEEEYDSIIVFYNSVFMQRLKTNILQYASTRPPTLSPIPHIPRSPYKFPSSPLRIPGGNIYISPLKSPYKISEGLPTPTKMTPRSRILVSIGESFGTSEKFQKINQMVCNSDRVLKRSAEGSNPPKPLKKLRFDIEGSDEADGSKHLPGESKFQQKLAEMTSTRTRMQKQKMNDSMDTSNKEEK
Experimental: Peptide A, Peptide B, and Acetyl-GRP 20-27 were assayed for their abilities to inhibit the binding of the HPV-16 E7 protein to the RBG protein. Binding inhibition assays were carried out in vitro using a modification of the procedure described by N. Dyson et al., Science 243: 934-936 1989. Whole cell lysates of Hela cells were used as a source of human RBG protein. Rabbit reticulocyte cell free lysates that permit transcription and translation of exogenously added DNAs served as a source of HPV-16 E7 protein. The HPV-16 E7 gene was added to the rabbit reticulocyte lysate as a recombinant DNA clone under the control of a T7 promoter and incubated for 60 minutes at 30°C in the presence of radiolabeled methionine to allow transcription of the HPV-16 E7 gene and translation into E7 protein that contained radiolabeled methionine. The Hela cell and rabbit reticulocyte lysates were then mixed and incubated at 4°C for 90 minutes. After further manipulations a murine antibody against the RBG protein was added and incubated at 4°C for 60 minutes. Next, a rabbit anti-mouse IgG antibody and protein A sepharose was added to the reaction mixture in order to immune precipitate the RBG protein. At the same time, the E7 protein that was bound to the RBG protein was also precipitated. […] This biochemical protocol yields a quantitative estimate of the binding of HPV-16 E7 protein to the RBG protein in vitro. […]

[2] = tested on: binding of the HPV-16 E7 protein to the RBG protein; experiment: Binding inhibition assay in vitro: immune precipitation of RBG protein with bound radiolabelled E7, gel electrophoresis and x-ray film; assay type: human RBG protein (Hela cells); HPV-16; conditions: summary statement

Compound | effect on HPV-16 E7 protein binding to the RBG protein ([1]; concentrations up to 60 uM) | inhibition of the binding of the HPV E7 protein to the RBG protein (in words) ([1]; summary statement) | inhibited the binding of the HPV E7 protein to the RBG protein (result in words) [2]
GPAGQAEPDRAHYNIV [Peptide B, Gly-Pro-Ala-Gly-Gln-Ala-Glu-Pro-Asp-Arg-Ala-His-Tyr-Asn-Ile-Val] | no effect | can not inhibit | 
CSCC[C@H](NC(=O)[C@H](CC(C)C)NC(=O)[C@H](Cc1c[nH]cn1)NC(=O)CNC(=O)[C@@H](NC(=O)[C@H](C)NC(=O)[C@H](Cc1c[nH]c2ccccc12)NC(=O)[C@H](Cc1c[nH]cn1)NC(C)=O)C(C)C)C(N)=O [Acetyl-GRP 20-27, reference compound] |  |  | Neither
GPAGQAEPDRAHYNIV [Peptide B] |  |  | Neither
